Results are given in words; binding and its absence hold for the method and conditions named. Some results given as binding are weak or reduced against the parent protein; the word gives no strength. Sequences can lack the tags named with a protein.
Biological target: His6-AviTag-MBP-TEV-POLE2 (human) (UniProt P56282)
Experiment: native holdup (nHU) titration with dot blot; purified His6-avi-MBP-tagged POLE2 as bait on resin; extracts of HEK293T cells transfected with HA-tagged full length proteins; 4 °C, 2 h; anti-HA dot blot; apparent; only the target purified

B1: HA-WDHD1, full length, intact NPF motif (protein, UniProt O75717 1-1129)
chain: MPATRKPMRYGHTEGHTEVCFDDSGSFIVTCGSDGDVRIWEDLDDDDPKFINVGEKAYSCALKSGKLVTAVSNNTIQVHTFPEGVPDGILTRFTTNANHVVFNGDGTKIAAGSSDFLVKIVDVMDSSQQKTFRGHDAPVLSLSFDPKDIFLASASCDGSVRVWQISDQTCAISWPLLQKCNDVINAKSICRLAWQPKSGKLLAIPVEKSVKLYRRESWSHQFDLSDNFISQTLNIVTWSPCGQYLAAGSINGLIIVWNVETKDCMERVKHEKGYAICGLAWHPTCGRISYTDAEGNLGLLENVCDPSGKTSSSKVSSRVEKDYNDLFDGDDMSNAGDFLNDNAVEIPSFSKGIINDDEDDEDLMMASGRPRQRSHILEDDENSVDISMLKTGSSLLKEEEEDGQEGSIHNLPLVTSQRPFYDGPMPTPRQKPFQSGSTPLHLTHRFMVWNSIGIIRCYNDEQDNAIDVEFHDTSIHHATHLSNTLNYTIADLSHEAILLACESTDELASKLHCLHFSSWDSSKEWIIDLPQNEDIEAICLGQGWAAAATSALLLRLFTIGGVQKEVFSLAGPVVSMAGHGEQLFIVYHRGTGFDGDQCLGVQLLELGKKKKQILHGDPLPLTRKSYLAWIGFSAEGTPCYVDSEGIVRMLNRGLGNTWTPICNTREHCKGKSDHYWVVGIHENPQQLRCIPCKGSRFPPTLPRPAVAILSFKLPYCQIATEKGQMEEQFWRSVIFHNHLDYLAKNGYEYEESTKNQATKEQQELLMKMLALSCKLEREFRCVELADLMTQNAVNLAIKYASRSRKLILAQKLSELAVEKAAELTATQVEEEEEEEDFRKKLNAGYSNTATEWSQPRFRNQVEEDAEDSGEADDEEKPEIHKPGQNSFSKSTNSSDVSAKSGAVTFSSQGRVNPFKVSASSKEPAMSMNSARSTNILDNMGKSSKKSTALSRTTNNEKSPIIKPLIPKPKPKQASAASYFQKRNSQTNKTEEVKEENLKNVLSETPAICPPQNTENQRPKTGFQMWLEENRSNILSDNPDFSDEADIIKEGMIRFRVLSTEERKVWANKAKGETASEGTEAKKRKRVVDESDETENQEEKAKENLNLSKKQKPLDFSTNQKLSAFAFKQE
For B1, the binding was “binds”.

B2: HA-TTF2, full length, intact NPF motifs (protein, UniProt Q9UNY4 1-1162)
chain: MEEVRCPEHGTFCFLKTGVRDGPNKGKSFYVCRADTCSFVRATDIPVSHCLLHEDFVVELQGLLLPQDKKEYRLFFRCIRSKAEGKRWCGSIPWQDPDSKEHSVSNKSQHASETFHHSSNWLRNPFKVLDKNQEPALWKQLIKGEGEEKKADKKQREKGDQLFDQKKEQKPEMMEKDLSSGLVPKKKQSVVQEKKQEEGAEIQCEAETGGTHKRDFSEIKSQQCQGNELTRPSASSQEKSSGKSQDVQRESEPLREKVTQLLPQNVHSHNSISKPQKGGPLNKEYTNWEAKETKAKDGPSIQATQKSLPQGHFQERPETHSVPAPGGPAAQAAPAAPGLSLGEGREAATSSDDEEEDDVVFVSSKPGSPLLFDSTLDLETKENLQFPDRSVQRKVSPASGVSKKVEPSDPVARRVYLTTQLKQKKSTLASVNIQALPDKGQKLIKQIQELEEVLSGLTLSPEQGTNEKSNSQVPQQSHFTKTTTGPPHLVPPQPLPRRGTQPVGSLELKSACQVTAGGSSQCYRGHTNQDHVHAVWKITSEAIGQLHRSLESCPGETVVAEDPAGLKVPLLLHQKQALAWLLWRESQKPQGGILADDMGLGKTLTMIALILTQKNQEKKEEKEKSTALTWLSKDDSCDFTSHGTLIICPASLIHHWKNEVEKRVNSNKLRVYLYHGPNRDSRARVLSTYDIVITTYSLVAKEIPTNKQEAEIPGANLNVEGTSTPLLRIAWARIILDEAHNVKNPRVQTSIAVCKLQACARWAVTGTPIQNNLLDMYSLLKFLRCSPFDEFNLWRSQVDNGSKKGGERLSILTKSLLLRRTKDQLDSTGRPLVILPQRKFQLHHLKLSEDEETVYNVFFARSRSALQSYLKRHESRGNQSGRSPNNPFSRVALEFGSEEPRHSEAADSPRSSTVHILSQLLRLRQCCCHLSLLKSALDPMELKGEGLVLSLEEQLSALTLSELRDSEPSSTVSLNGTFFKMELFEGMRESTKISSLLAELEAIQRNSASQKSVIVSQWTNMLKVVALHLKKHGLTYATIDGSVNPKQRMDLVEAFNHSRGPQVMLISLLAGGVGLNLTGGNHLFLLDMHWNPSLEDQACDRIYRVGQQKDVVIHRFVCEGTVEEKILQLQEKKKDLAKQVLSGSGESVTKLTLADLRVLFGI
B2 was tested, and the binding was “binds”.

B3: HA-ERCC6L, full length, intact NPF motif (protein, UniProt Q2NKX8 1-1250)
chain: MEASRRFPEAEALSPEQAAHYLRYVKEAKEATKNGDLEEAFKLFNLAKDIFPNEKVLSRIQKIQEALEELAEQGDDEFTDVCNSGLLLYRELHNQLFEHQKEGIAFLYSLYRDGRKGGILADDMGLGKTVQIIAFLSGMFDASLVNHVLLIMPTNLINTWVKEFIKWTPGMRVKTFHGPSKDERTRNLNRIQQRNGVIITTYQMLINNWQQLSSFRGQEFVWDYVILDEAHKIKTSSTKSAICARAIPASNRLLLTGTPIQNNLQELWSLFDFACQGSLLGTLKTFKMEYENPITRAREKDATPGEKALGFKISENLMAIIKPYFLRRTKEDVQKKKSSNPEARLNEKNPDVDAICEMPSLSRKNDLIIWIRLVPLQEEIYRKFVSLDHIKELLMETRSPLAELGVLKKLCDHPRLLSARACCLLNLGTFSAQDGNEGEDSPDVDHIDQVTDDTLMEESGKMIFLMDLLKRLRDEGHQTLVFSQSRQILNIIERLLKNRHFKTLRIDGTVTHLLEREKRINLFQQNKDYSVFLLTTQVGGVGLTLTAATRVVIFDPSWNPATDAQAVDRVYRIGQKENVVVYRLITCGTVEEKIYRRQVFKDSLIRQTTGEKKNPFRYFSKQELRELFTIEDLQNSVTQLQLQSLHAAQRKSDIKLDEHIAYLQSLGIAGISDHDLMYTCDLSVKEELDVVEESHYIQQRVQKAQFLVEFESQNKEFLMEQQRTRNEGAWLREPVFPSSTKKKCPKLNKPQPQPSPLLSTHHTQEEDISSKMASVVIDDLPKEGEKQDLSSIKVNVTTLQDGKGTGSADSIATLPKGFGSVEELCTNSSLGMEKSFATKNEAVQKETLQEGPKQEALQEDPLESFNYVLSKSTKADIGPNLDQLKDDEILRHCNPWPIISITNESQNAESNVSIIEIADDLSASHSALQDAQASEAKLEEEPSASSPQYACDFNLFLEDSADNRQNFSSQSLEHVEKENSLCGSAPNSRAGFVHSKTCLSWEFSEKDDEPEEVVVKAKIRSKARRIVSDGEDEDDSFKDTSSINPFNTSLFQFSSVKQFDASTPKNDISPPGRFFSSQIPSSVNKSMNSRRSLASRRSLINMVLDHVEDMEERLDDSSEAKGPEDYPEEGVEESSGEASKYTEEDPSGETLSSENKSSWLMTSKPSALAQETSLGAPEPLSGEQLVGSPQDKAAEATNDYETLVKRGKELKECGKIQEALNCLVKALDIKSADPEVMLLTLSLYKQLNNN
In the case of B3, the binding is reported as “binds”.

Reference: article PMC12808100, “The non-catalytic DNA polymerase ε subunit is an NPF motif recognition protein” (Nature Communications, 2025)
